# Reference: article PMC8789930
# No constants are given. Whether binding was seen depends on the method and setting. Binding seen in cells or lysates may run through a third protein. Binding calls can cover weak binding; strength is not graded here. Tags and fused reporters may be left off the sequences shown.
# Target: T1, HA-USP44 (UniProt Q9H0E7)
# T1 sequence: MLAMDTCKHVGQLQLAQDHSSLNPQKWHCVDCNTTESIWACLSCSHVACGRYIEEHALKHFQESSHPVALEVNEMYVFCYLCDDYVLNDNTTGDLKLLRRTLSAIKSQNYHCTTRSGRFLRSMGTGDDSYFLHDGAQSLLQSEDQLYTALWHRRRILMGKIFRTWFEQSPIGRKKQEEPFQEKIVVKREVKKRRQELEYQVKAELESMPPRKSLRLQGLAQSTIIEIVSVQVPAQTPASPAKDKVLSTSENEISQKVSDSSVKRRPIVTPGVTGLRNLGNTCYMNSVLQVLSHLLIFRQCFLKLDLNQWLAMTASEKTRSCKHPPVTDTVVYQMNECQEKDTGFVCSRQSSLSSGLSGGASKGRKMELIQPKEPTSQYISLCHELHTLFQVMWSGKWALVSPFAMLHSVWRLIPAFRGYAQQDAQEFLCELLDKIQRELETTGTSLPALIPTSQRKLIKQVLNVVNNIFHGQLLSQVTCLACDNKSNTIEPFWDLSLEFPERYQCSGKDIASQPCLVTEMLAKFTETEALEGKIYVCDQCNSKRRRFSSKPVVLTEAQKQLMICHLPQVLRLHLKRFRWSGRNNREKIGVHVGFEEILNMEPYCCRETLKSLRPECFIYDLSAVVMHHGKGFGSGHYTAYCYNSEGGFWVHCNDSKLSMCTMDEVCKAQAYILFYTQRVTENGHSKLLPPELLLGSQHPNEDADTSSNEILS
# Experiment: co-IP; truncation co-IP of TRIM25 domains with USP44 (Supplementary Fig. 5a); cells and tags not stated
row,Substance,binding
1,TRIM25 HR1 domain (domain or fragment),binds
2,TRIM25 RING finger domain (domain or fragment),no binding
3,TRIM25 PRY/SPRY domain (domain or fragment),binds
